Data from the supplement of paper PMC6411743.
± gives the standard deviation of the averaged measurements. The entries are a selection whose mix differs from that of the whole data set. Most entries show no effect beyond the scatter of the controls.

Sequences of proteins named here, by UniProt entry; tags and fusion partners are left off. A change or cut given only in a name is not applied to a line headed by its entry.
UniProt Q86WP2: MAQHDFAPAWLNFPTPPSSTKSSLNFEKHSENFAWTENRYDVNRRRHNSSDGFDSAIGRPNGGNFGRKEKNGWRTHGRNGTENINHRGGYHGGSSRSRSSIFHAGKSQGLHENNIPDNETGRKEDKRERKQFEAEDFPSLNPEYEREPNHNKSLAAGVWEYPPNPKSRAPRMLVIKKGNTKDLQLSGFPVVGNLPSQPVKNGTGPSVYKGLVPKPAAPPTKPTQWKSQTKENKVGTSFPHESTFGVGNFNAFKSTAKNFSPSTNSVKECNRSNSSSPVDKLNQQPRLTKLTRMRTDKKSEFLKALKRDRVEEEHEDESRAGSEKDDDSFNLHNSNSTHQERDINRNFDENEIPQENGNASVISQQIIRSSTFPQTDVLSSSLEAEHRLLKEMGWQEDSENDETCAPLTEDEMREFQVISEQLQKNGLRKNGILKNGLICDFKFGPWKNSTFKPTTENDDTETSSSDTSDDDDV
UniProt Q13614, whole entry: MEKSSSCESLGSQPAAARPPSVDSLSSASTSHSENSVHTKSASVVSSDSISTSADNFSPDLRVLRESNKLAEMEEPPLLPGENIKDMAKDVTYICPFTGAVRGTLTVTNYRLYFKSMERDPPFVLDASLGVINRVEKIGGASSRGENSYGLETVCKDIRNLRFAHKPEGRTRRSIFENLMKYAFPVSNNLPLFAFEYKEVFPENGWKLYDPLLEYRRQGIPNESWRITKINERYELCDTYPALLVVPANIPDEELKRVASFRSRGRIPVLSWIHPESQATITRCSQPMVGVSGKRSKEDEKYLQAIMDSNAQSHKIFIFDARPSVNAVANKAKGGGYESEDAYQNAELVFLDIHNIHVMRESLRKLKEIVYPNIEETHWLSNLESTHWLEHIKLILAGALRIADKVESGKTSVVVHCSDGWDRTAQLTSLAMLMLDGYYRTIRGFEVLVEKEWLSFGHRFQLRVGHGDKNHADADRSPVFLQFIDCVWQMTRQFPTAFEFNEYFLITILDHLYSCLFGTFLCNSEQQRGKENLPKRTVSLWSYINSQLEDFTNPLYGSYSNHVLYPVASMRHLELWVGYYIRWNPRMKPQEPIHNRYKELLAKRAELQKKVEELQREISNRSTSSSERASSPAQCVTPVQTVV
UniProt P61619, whole entry: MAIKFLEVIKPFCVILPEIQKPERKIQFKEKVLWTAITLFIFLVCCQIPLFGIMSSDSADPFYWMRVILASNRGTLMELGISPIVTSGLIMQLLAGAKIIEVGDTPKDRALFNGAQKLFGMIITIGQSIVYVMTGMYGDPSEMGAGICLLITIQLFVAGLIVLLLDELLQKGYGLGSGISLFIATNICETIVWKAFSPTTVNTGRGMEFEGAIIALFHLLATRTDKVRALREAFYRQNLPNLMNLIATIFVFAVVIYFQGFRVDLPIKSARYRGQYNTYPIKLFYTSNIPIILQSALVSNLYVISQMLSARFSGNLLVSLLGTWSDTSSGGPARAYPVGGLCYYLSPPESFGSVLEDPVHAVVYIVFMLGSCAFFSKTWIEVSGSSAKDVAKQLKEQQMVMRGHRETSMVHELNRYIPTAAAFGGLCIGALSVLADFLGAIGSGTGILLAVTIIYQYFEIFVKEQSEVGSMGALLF
UniProt Q15369, whole entry: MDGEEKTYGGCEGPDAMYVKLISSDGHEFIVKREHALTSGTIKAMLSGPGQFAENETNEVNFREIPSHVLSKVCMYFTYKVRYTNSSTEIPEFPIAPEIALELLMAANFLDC
UniProt Q8NEB9, whole entry: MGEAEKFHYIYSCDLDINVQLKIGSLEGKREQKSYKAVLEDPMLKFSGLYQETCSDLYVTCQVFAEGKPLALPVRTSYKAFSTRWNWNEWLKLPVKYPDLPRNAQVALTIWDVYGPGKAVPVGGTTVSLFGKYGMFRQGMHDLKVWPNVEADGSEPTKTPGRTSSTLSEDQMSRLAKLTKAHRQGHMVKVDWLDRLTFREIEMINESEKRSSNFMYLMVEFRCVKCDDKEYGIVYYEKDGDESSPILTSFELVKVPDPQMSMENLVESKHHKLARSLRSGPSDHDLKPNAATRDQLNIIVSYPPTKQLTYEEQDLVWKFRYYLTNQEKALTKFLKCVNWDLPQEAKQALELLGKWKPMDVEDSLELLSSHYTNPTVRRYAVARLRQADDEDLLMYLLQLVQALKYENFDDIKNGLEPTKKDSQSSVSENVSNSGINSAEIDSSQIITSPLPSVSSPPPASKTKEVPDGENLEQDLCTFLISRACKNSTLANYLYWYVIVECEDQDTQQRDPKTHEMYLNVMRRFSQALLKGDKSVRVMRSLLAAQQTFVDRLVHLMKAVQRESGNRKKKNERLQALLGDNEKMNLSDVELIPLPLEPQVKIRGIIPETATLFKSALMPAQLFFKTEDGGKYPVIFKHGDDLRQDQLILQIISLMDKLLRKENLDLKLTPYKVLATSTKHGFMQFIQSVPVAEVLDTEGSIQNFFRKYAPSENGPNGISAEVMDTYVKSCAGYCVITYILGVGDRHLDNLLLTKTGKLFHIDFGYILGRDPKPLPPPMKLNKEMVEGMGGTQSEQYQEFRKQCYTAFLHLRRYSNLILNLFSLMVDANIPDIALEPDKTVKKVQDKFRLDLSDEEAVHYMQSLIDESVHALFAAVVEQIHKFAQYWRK
UniProt A6NK58: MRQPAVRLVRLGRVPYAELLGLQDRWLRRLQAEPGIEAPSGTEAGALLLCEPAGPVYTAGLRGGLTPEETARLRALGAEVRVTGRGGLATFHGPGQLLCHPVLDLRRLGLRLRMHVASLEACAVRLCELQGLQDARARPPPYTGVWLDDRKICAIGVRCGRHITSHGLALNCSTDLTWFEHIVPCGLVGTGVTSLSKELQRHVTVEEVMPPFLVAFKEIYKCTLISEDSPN
UniProt A5YKK6, whole entry: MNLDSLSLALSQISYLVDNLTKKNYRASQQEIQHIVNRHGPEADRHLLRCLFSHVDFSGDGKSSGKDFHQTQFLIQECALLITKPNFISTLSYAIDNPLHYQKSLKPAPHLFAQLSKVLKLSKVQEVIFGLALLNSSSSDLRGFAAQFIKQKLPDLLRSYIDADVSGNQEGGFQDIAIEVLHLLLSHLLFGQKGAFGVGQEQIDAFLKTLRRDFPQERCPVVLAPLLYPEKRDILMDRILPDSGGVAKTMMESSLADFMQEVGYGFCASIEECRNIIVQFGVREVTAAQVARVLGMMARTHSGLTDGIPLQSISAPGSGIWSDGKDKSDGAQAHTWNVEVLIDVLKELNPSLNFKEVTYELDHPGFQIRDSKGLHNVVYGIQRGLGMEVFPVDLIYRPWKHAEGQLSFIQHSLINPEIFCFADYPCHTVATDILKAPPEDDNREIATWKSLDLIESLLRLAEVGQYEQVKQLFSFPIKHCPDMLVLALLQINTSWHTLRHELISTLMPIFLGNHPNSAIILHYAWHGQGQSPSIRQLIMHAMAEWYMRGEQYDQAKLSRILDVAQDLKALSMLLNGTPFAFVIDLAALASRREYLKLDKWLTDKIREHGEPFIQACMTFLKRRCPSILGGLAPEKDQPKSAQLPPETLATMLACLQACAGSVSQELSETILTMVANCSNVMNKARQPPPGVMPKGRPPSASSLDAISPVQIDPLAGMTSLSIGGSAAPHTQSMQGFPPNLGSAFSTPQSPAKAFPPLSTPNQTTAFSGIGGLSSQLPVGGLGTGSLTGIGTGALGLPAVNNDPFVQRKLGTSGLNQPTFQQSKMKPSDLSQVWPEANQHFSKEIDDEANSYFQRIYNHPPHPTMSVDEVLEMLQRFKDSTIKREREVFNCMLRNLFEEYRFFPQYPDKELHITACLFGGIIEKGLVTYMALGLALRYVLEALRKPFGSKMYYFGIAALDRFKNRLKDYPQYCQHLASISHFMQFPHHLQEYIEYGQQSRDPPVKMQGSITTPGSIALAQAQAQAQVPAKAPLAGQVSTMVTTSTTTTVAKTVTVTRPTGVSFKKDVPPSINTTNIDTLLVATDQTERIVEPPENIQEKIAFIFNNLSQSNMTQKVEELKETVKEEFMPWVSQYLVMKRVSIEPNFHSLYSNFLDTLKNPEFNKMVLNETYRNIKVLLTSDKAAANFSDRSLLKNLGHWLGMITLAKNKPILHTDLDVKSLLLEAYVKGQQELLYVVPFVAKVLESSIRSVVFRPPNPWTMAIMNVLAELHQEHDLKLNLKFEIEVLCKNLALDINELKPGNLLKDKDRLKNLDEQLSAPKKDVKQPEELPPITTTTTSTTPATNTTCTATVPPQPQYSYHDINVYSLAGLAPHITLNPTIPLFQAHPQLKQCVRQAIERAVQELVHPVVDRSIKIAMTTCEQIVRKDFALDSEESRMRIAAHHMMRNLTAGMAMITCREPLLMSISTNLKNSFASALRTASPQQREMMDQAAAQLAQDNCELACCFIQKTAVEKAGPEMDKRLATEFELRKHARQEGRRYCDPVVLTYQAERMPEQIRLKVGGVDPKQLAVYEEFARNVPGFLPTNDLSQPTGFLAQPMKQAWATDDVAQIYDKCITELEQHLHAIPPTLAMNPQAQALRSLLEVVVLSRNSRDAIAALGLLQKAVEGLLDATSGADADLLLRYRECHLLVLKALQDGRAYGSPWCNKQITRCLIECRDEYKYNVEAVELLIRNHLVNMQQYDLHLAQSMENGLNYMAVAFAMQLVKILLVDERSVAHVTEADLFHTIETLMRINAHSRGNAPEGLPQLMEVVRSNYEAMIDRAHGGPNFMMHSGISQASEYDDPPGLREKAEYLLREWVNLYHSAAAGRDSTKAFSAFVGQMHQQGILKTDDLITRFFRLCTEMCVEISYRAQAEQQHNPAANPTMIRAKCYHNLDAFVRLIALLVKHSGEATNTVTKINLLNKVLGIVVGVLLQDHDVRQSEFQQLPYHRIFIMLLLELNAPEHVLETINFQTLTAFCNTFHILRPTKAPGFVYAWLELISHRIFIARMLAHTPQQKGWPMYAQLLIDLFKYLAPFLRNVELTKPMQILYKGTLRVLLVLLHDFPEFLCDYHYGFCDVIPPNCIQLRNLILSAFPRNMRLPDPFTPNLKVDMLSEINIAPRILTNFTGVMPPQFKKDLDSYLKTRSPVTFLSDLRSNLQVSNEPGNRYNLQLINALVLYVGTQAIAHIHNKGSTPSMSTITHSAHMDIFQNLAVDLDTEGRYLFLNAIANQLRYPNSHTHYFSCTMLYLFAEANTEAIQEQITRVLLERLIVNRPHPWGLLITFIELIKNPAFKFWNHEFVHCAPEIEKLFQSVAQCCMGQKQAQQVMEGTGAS
UniProt Q5TEU4: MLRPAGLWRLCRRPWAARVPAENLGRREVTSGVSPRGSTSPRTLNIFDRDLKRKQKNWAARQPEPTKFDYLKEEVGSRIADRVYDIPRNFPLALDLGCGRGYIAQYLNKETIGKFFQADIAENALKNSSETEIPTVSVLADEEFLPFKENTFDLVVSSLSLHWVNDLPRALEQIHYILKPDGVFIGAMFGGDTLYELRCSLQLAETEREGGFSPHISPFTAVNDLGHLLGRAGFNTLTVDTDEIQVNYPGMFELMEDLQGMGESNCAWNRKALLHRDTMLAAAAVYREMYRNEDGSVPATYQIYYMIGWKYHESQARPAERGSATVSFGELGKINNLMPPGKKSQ
UniProt Q96RU3: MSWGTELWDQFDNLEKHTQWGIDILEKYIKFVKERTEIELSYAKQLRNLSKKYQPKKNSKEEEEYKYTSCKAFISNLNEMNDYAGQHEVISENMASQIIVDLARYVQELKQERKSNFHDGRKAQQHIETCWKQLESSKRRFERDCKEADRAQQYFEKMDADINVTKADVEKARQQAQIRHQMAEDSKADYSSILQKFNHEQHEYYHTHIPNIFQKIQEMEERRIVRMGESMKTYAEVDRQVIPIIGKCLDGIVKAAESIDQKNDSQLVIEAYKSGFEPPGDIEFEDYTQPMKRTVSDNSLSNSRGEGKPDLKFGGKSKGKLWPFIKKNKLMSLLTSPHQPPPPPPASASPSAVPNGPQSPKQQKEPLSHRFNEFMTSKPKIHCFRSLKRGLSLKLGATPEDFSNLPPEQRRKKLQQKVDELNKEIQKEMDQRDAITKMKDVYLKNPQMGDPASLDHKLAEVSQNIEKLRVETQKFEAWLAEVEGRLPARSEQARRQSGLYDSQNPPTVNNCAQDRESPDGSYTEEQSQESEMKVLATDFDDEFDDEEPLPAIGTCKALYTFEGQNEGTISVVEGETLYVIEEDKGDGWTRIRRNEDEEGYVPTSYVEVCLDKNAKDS
UniProt Q9Y5U2: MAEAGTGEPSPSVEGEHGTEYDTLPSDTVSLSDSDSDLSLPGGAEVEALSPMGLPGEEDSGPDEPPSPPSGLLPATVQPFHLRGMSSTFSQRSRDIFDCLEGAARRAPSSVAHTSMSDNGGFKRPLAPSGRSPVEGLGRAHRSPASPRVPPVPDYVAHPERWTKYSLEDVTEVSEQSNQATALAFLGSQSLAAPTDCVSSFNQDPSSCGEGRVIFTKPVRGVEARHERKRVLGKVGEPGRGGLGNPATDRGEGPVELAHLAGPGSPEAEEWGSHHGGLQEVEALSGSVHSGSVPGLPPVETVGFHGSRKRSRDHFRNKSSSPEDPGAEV

Compound: Nc1ncnc2c1ncn2[C@@H]1O[C@H](COP(=O)(O)OP(=O)(O)NP(=O)(O)O)[C@@H](O)[C@H]1O [adenylyl imidodiphosphate]
Assay: NP40-soluble protein abundance relative to vehicle (solubility fold change) (ratio); higher = more soluble protein in presence of AMP-PNP
How it was run: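 Each value is a fold change relative to the detergent-processed vehicle, calculated per replicate from vsn-normalised intensities. Jurkat crude lysate received eight concentrations (0.1 to 10 mM) for 10 min at room temperature and 3 min at 37 °C, then was solubilised in 0.8% NP40 with benzonase (60 min, 4 °C). The ultracentrifuged supernatant was TMT-labelled and run by LC-MS/MS in three independent experiments.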

Target | NP40-soluble protein abundance (concentration: 0.1mM) | NP40-soluble protein abundance (concentration: 0.5mM)
D4PHA4 and related entries (UniProt Q86WP2) | 0.955 ± 0.021 | 1.008 ± 0.0058
C9JEX3 and related entries (UniProt Q13614) | 0.9953 ± 0.0091 | 1.01 ± 0.029
B5MCF9 and related entries (UniProt O00541) | 0.994 ± 0.0021 | 1.014 ± 0.0097
B4DR61 and related entries (UniProt P61619) | 1.06 ± 0.069 | 0.977 ± 0.17
A2IDC6 and related entries (UniProt Q13084) | 0.991 ± 0.028 | 1.03 ± 0.055
D6RCD0 and related entries (UniProt Q8NBQ5) | 1.02 ± 0.059 | 1.01 ± 0.028
D6RGX2 and related entries (UniProt Q9NUQ7) | 1.02 ± 0.0032 | 0.994 ± 0.082
E5RHG8 and related entries (UniProt Q15369) | 0.999 ± 0.013 | 1.06 ± 0.052
A8MXP9 and related entries (UniProt P43243) | 1.01 ± 0.034 | 1.02 ± 0.041
A8MYT4 and related entries (UniProt Q8NEB9) | 1.023 ± 0.0064 | 0.998 ± 0.039
LIPT2 (UniProt A6NK58) | 1.002 ± 0.0097 | 0.9981 ± 0.0071
A6NEP9 and related entries (UniProt Q8NG11) | 0.985 ± 0.044 | 1.01 ± 0.054
CNOT1 (UniProt A5YKK6) | 0.959 ± 0.039 | 0.944 ± 0.011
B3KR61 and related entries (UniProt Q5TEU4) | 1.01 ± 0.033 | 1.05 ± 0.079
B7ZL14 and related entries (UniProt Q96RU3) | 1 ± 0.032 | 1.02 ± 0.061
UniProt A3KN83 and related entries | 0.991 ± 0.034 | 0.991 ± 0.019
C9JJV1 and related entries (UniProt Q9Y5U2) | 1.01 ± 0.014 | 1.07 ± 0.11

2 entries picked at random from those above, as already listed:
Target | NP40-soluble protein abundance (concentration: 0.1mM) | NP40-soluble protein abundance (concentration: 0.5mM)
A8MYT4 and related entries (UniProt Q8NEB9) | 1.023 ± 0.0064 | 0.998 ± 0.039
B7ZL14 and related entries (UniProt Q96RU3) | 1 ± 0.032 | 1.02 ± 0.061
